# The supplement of paper PMC12819154, “High-throughput peptide-centric local stability assay extends protein–ligand identification to membrane proteins, tissues and bacteria” (Nature Structural & Molecular Biology, 2025)
# Amino acid sequences for entries named in this document (tags omitted). A change or cut given only in a name is not applied to a line headed by its entry.
# UniProt P37676: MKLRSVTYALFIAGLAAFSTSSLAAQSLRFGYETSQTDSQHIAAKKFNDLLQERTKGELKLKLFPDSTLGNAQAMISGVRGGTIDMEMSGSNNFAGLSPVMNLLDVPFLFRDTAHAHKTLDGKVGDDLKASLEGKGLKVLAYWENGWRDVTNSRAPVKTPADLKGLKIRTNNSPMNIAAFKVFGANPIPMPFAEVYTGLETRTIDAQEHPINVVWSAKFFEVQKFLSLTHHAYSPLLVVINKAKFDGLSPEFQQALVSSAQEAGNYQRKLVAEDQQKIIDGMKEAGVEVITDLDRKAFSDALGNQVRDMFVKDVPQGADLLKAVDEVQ
# UniProt P31825: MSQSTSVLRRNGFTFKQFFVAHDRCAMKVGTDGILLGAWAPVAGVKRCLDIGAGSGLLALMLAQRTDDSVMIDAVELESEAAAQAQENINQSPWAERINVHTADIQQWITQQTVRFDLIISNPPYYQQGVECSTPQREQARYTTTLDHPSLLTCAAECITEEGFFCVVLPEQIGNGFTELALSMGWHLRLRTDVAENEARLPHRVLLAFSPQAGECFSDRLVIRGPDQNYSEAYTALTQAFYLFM
# UniProt P32681: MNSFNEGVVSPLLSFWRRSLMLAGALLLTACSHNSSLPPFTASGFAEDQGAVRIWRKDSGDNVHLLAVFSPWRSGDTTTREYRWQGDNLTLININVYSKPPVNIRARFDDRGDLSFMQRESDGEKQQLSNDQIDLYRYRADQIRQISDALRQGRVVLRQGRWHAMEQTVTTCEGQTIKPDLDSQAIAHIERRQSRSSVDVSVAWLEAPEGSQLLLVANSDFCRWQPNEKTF
# UniProt P31600: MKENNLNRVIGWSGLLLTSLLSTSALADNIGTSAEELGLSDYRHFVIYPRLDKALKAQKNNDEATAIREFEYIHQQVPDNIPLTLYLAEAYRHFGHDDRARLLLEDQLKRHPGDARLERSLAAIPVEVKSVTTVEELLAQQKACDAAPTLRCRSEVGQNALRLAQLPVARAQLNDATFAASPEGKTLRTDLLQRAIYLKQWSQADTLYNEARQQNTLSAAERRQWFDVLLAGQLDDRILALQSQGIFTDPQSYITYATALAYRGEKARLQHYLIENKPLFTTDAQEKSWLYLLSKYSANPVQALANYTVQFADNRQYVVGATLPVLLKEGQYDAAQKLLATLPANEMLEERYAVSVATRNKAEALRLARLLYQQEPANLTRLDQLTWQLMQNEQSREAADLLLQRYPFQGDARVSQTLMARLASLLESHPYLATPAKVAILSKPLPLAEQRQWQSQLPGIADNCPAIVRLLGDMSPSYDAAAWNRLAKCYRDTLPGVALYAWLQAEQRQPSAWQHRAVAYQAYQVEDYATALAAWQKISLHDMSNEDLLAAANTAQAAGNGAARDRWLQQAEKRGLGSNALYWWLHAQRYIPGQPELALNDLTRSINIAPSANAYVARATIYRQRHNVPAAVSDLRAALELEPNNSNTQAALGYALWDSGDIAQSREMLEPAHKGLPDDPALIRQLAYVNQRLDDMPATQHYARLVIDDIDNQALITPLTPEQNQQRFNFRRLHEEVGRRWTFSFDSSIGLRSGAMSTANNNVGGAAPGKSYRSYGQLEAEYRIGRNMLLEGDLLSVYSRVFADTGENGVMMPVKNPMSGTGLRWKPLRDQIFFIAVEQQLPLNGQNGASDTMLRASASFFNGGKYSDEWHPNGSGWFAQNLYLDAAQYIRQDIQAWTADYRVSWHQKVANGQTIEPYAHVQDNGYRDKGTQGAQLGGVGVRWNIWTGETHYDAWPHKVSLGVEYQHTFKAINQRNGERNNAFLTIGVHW
# UniProt P33230: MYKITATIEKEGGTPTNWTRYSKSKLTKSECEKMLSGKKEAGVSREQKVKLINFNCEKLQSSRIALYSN
# UniProt P39165: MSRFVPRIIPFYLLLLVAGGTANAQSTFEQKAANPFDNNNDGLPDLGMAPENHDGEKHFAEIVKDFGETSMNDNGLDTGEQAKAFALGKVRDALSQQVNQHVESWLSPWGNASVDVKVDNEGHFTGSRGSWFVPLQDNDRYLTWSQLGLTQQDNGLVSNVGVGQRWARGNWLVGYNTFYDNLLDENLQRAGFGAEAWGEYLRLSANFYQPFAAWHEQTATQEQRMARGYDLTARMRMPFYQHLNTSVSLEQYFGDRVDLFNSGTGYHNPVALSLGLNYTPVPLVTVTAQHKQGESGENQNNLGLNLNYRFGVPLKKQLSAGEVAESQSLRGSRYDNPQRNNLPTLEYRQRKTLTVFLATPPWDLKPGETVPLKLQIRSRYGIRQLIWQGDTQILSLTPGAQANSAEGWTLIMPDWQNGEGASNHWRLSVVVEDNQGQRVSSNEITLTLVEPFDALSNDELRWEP
# UniProt P31697: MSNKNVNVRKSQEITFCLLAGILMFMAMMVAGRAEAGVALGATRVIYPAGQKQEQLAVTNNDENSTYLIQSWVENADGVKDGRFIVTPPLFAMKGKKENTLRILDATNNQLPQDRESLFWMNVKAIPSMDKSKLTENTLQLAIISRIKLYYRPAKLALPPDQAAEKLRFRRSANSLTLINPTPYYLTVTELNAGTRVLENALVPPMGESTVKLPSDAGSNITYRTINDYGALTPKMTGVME
# UniProt P33025: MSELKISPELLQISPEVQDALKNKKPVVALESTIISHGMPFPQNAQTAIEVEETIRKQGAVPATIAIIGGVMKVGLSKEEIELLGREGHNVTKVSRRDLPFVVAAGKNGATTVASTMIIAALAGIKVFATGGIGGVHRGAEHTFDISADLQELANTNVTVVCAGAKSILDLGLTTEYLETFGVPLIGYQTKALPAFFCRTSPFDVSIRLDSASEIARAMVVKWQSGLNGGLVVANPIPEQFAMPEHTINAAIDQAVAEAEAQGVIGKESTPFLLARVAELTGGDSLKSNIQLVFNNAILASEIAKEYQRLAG
# UniProt P31469: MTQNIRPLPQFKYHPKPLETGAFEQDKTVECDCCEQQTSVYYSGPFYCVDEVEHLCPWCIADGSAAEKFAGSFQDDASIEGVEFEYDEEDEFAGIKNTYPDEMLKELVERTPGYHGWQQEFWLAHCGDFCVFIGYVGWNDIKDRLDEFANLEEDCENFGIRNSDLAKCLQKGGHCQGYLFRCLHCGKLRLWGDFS
# UniProt P37309: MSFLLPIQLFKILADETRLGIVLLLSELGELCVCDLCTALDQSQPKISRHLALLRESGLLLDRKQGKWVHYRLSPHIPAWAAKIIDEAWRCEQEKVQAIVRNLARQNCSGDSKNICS
# UniProt P31459: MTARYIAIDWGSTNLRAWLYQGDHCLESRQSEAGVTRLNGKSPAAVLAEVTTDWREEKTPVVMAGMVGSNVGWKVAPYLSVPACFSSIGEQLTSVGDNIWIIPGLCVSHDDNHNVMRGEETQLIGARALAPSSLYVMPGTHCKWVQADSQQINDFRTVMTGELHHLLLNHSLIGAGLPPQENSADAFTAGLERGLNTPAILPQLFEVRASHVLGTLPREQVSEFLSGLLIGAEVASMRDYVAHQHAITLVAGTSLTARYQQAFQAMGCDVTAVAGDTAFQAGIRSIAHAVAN
# UniProt P33224: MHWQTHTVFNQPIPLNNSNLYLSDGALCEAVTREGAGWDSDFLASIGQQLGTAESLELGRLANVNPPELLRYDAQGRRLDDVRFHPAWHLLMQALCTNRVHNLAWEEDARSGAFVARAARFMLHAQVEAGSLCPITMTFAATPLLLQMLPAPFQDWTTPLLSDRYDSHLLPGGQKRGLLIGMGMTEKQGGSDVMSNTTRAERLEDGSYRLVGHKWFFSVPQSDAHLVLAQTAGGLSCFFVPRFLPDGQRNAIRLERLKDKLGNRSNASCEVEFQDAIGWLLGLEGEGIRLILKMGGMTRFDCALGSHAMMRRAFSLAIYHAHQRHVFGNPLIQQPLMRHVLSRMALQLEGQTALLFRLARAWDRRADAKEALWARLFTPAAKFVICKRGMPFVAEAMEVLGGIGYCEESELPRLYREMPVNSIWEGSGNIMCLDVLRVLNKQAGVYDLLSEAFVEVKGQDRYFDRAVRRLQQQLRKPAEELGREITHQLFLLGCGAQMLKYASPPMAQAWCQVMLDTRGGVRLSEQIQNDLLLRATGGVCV
# UniProt P33234: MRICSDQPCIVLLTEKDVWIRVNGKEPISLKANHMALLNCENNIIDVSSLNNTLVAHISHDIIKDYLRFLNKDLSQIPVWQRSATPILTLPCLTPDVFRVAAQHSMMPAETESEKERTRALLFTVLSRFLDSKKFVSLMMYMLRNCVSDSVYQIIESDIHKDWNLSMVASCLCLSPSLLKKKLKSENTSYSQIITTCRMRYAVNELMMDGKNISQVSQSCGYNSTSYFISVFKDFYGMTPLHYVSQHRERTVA
# UniProt P38104: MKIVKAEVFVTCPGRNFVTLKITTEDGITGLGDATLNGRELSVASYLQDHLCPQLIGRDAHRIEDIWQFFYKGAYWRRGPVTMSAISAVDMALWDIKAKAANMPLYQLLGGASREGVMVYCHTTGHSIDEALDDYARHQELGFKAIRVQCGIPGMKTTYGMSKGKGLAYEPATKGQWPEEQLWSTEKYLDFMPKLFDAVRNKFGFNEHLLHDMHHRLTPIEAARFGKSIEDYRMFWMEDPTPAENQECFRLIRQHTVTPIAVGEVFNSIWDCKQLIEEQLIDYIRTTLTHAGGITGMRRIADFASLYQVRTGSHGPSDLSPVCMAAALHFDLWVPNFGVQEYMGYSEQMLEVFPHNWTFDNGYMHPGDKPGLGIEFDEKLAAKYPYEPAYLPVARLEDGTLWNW
# UniProt P32719: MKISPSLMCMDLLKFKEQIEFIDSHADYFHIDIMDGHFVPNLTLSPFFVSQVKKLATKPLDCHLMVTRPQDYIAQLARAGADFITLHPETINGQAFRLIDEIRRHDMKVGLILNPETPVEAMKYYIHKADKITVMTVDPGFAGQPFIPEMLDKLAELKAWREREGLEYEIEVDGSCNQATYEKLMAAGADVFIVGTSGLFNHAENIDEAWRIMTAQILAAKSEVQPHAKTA
# UniProt P31447: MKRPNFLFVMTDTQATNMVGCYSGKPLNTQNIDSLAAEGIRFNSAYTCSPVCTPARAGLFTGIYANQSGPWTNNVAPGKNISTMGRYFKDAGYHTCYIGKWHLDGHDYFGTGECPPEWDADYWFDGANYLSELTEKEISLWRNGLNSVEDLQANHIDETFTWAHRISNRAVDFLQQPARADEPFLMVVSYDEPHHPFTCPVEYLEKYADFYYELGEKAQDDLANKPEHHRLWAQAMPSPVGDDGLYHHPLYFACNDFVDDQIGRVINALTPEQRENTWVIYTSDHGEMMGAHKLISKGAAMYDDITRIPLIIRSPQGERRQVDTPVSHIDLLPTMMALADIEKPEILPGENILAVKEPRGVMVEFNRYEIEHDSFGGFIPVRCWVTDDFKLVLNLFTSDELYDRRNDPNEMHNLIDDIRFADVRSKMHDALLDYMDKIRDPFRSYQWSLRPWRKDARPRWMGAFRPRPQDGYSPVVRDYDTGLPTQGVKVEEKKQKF
# UniProt P32160: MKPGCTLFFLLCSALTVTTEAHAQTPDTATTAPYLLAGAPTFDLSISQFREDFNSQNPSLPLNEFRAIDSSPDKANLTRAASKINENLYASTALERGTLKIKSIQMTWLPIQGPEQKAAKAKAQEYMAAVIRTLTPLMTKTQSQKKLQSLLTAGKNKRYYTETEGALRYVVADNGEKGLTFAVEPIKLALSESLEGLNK
# The entries are a selection whose mix differs from that of the whole data set. Most values lie at the level of the controls, where differences are scatter.
# Compound: Nc1ncnc2c1ncn2[C@@H]1O[C@H](COP(=O)(O)OP(=O)(O)OP(=O)(O)O)[C@@H](O)[C@H]1O [adenosine 5'-triphosphate]
# Experiment: log2 fold change of tryptic peptide abundance, ligand vs vehicle (limited proteolysis) (log2 ratio); higher = more trypsin-susceptible (destabilized)
# Settings: ligand concentration: 5 mM; sample: E. coli desalted lysate; replicate design: treated before aliquoting
# Protocol: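 HT-PELSA: desalted E. coli K-12 BW25113 lysate (with 12 mM MgCl2) incubated with 5 mM ATP (pH 7) or water for 30 min at 25 C, then a 4 min trypsin pulse at 22 C. Peptides were quantified by DIA-MS (4 replicates). Value is the peptide log2 fold change (treated/control); negative = stabilized. Scale: negative = ligand-stabilized region.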
# 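Note: lysate desalted by size exclusion to strip endogenous ATP, peptide intensities built from DIA-NN precursor signals, and peptides missing any value discarded before comparison.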
row,Target,log2 fold change
1,"UniProt P37676 (peptide sequence: AFSDALGNQVR, peptide start residue: 297)",0.712
2,"UniProt P31825 (peptide sequence: QFFVAHDR, peptide start residue: 17)",0.345
3,"UniProt P32681 (peptide sequence: FDDRGDLSFMQR, peptide start residue: 108)",-0.0271
4,"UniProt P31600 (peptide sequence: ACDAAPTLR, peptide start residue: 143)",0.388
5,"UniProt P33230 (peptide sequence: EGGTPTNWTR, peptide start residue: 11)",-0.323
6,"UniProt P39165 (peptide sequence: NNLPTLEYR, peptide start residue: 340)",0.0229
7,"UniProt P31697 (peptide sequence: TINDYGALTPK, peptide start residue: 225)",0.444
8,"UniProt P33025 (peptide sequence: DLPFVVAAGK, peptide start residue: 98)",0.301
9,"UniProt P31469 (peptide sequence: NTYPDEMLK, peptide start residue: 97)",0.213
10,"UniProt P37309 (peptide sequence: LSPHIPAWAAK, peptide start residue: 73)",0.556
11,"UniProt P31459 (peptide sequence: AWLYQGDHCLESR, peptide start residue: 17)",-0.364
12,"UniProt P33224 (peptide sequence: VHNLAWEEDAR, peptide start residue: 100)",0.393
13,"UniProt P33234 (peptide sequence: KLKSENTSYSQIITTCR, peptide start residue: 182)",1.31
14,"UniProt P38104 (peptide sequence: GLAYEPATK, peptide start residue: 166)",-0.00266
15,"UniProt P32719 (peptide sequence: SEVQPHAK, peptide start residue: 222)",-0.4
16,"UniProt P31447 (peptide sequence: DYDTGLPTQGVK, peptide start residue: 478)",-0.51
17,"UniProt P32160 (peptide sequence: YVVADNGEK, peptide start residue: 169)",0.194

# Shown as tab-separated lines: part of the list above
row	Target	log2 fold change
14	UniProt P38104 (peptide sequence: GLAYEPATK, peptide start residue: 166)	-0.00266
15	UniProt P32719 (peptide sequence: SEVQPHAK, peptide start residue: 222)	-0.4
